At least one compound was matched to its structure with a doubt left.
Tested on: C2C12 myoblasts
Test: Dexamethasone-induced myotube atrophy and death of C2C12 myoblasts (crystal violet staining)
Type: cell-based
Details: 100 μM dexamethasone only, 48 hours, vs control group, FIG. 4

C[C@@H]1C[C@H]2[C@@H]3CCC4=CC(=O)C=C[C@]4(C)[C@@]3(F)[C@@H](O)C[C@]2(C)[C@@]1(O)C(=O)CO [dexamethasone]
atrophy and death of C2C12 myoblasts: more notable atrophy and death than those in the control group

Reference: patent US20240033307A1, “METHOD FOR ENHANCING SPORTS PERFORMANCE AND ALLEVIATING SARCOPENIA WITH STREPTOCOCCUS THERMOPHILES ST7 FERMENTATION PRODUCT COMPOSITION” (SYNGEN BIOTECH CO., LTD., priority 2022, published 2024)
